# This is one part of the list.
# B1: LlpA1 (Pseudomonas fluorescens), Q4KHC3 (protein)
# chain: MGSSHHHHHHSSGLVPRGSHMAWIRYDFTDNGSSVLPARYYMAPNQYLQSPNKRFKLLFQADGNLALYDGAQLAWVADQNTPFTNVSKGNKKDPMMVFMNYGFVLDDPLRGRIWSTTPSDPTMGSREDASLRAFTQVQDDGNIVTVDTIPHWYAPNGRVFTPAVGAAMIIGGTTELVPGQFYSAGEHSLVFQGDGNLVVYGPNSSVIWATYTQNKGGVRCVMQEDGNLVIYAANNGVVWQSGTGGHPGATIRLQANGSFTIVTERPVWARFGYTPTIKPPRVFYPDHKWKTGSYTWNNVF
# Columns and labels:
# Assay in all cases: glycan array binding signal (z-score within array); higher = stronger binding
# Details in all cases: glycan notation: IUPAC condensed, linker removed
# [1] = molecular target: Gal(b1-3)[Fuc(a1-4)]GlcNAc(b1-2)Man
# Method in brief: (§1)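 Negative Z-scores can be read as non-binding. The Z-score is calculated within each array and then averaged across arrays of one protein sequence at different concentrations or buffers and across linkers. Arrays, 3228 in all, were curated from the Consortium for Functional Glycomics database and kept only where the protein sequence was available.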
# [2] = molecular target: Gal(b1-3)[Fuc(a1-4)]GlcNAc(b1-2)Man(a1-3)[Gal(b1-3)[Fuc(a1-4)]GlcNAc(b1-2)Man(a1-6)]Man(b1-4)GlcNAc(b1-4)[Fuc(a1-6)]GlcNAc
# Method in brief: as §1
# [3] = molecular target: Gal(b1-3)[Fuc(a1-4)]GlcNAc(b1-3)Gal(b1-3)[Fuc(a1-4)]GlcNAc
# Method in brief: as §1
# [4] = molecular target: Gal(b1-3)[Fuc(a1-4)]GlcNAc(b1-3)Gal(b1-4)GlcNAc
# Method in brief: as §1
# [5] = molecular target: Gal(b1-3)[Fuc(a1-4)]GlcNAc(b1-3)Gal(b1-4)[Fuc(a1-3)]GlcNAc
# Method in brief: as §1
# [6] = molecular target: Gal(b1-3)[Fuc(a1-4)]GlcNAc(b1-6)GalNAc
# Method in brief: as §1
# [7] = molecular target: Gal(b1-3)[GlcNAc(b1-6)]GalNAc
# Method in brief: as §1
# [8] = molecular target: Gal(b1-3)[Neu5Ac(a2-6)]GalNAc
# Method in brief: as §1
# [9] = molecular target: Gal(b1-3)[Neu5Ac(a2-6)]GlcNAc(b1-4)Gal(b1-4)Glc
# Method in brief: as §1
# [10] = molecular target: Gal(b1-3)[Neu5Ac(a2-6)]GlcNAc(b1-6)Gal(b1-4)Glc
# Method in brief: as §1
# [11] = molecular target: Gal(b1-3)[Neu5Ac(b2-6)]GalNAc
# Method in brief: as §1
# Gal(b1-4)Gal = molecular target: Gal(b1-4)Gal
# Method in brief: as §1
# [12] = molecular target: Gal(b1-4)GalNAc(a1-3)[Fuc(a1-2)]Gal(b1-4)GlcNAc
# Method in brief: as §1
# [13] = molecular target: Gal(b1-4)GalNAc(b1-3)[Fuc(a1-2)]Gal(b1-4)GlcNAc
# Method in brief: as §1
# Gal(b1-4)Glc = molecular target: Gal(b1-4)Glc
# Method in brief: as §1
# Gal(b1-4)Glc6S = molecular target: Gal(b1-4)Glc6S
# Method in brief: as §1
# Gal(b1-4)GlcNAc = molecular target: Gal(b1-4)GlcNAc
# Method in brief: as §1
# [14] = molecular target: Gal(b1-4)GlcNAc(a1-6)Gal(b1-4)GlcNAc
# Method in brief: as §1
# Gal(b1-4)GlcNAc(b1-2)Man = molecular target: Gal(b1-4)GlcNAc(b1-2)Man
# Method in brief: as §1
# [15] = molecular target: Gal(b1-4)GlcNAc(b1-2)Man(a1-3)Man(b1-4)GlcNAc(b1-4)GlcNAc
# Method in brief: as §1
# [16] = molecular target: Gal(b1-4)GlcNAc(b1-2)Man(a1-3)[Gal(b1-4)GlcNAc(b1-2)Man(a1-6)]Man(b1-4)GlcNAc(b1-4)GlcNAc
# Method in brief: as §1
# [17] = molecular target: Gal(b1-4)GlcNAc(b1-2)Man(a1-3)[Gal(b1-4)GlcNAc(b1-2)Man(a1-6)]Man(b1-4)GlcNAc(b1-4)[Fuc(a1-6)]GlcNAc
# Method in brief: as §1
# [18] = molecular target: Gal(b1-4)GlcNAc(b1-2)Man(a1-3)[Gal(b1-4)GlcNAc(b1-2)Man(a1-6)][Gal(b1-4)GlcNAc(b1-4)]Man(b1-4)GlcNAc(b1-4)[Fuc(a1-6)]GlcNAc
# Method in brief: as §1
# [19] = molecular target: Gal(b1-4)GlcNAc(b1-2)Man(a1-3)[Gal(b1-4)GlcNAc(b1-2)Man(a1-6)][GlcNAc(b1-4)]Man(b1-4)GlcNAc(b1-4)[Fuc(a1-6)]GlcNAc
# Method in brief: as §1
# [20] = molecular target: Gal(b1-4)GlcNAc(b1-2)Man(a1-3)[Gal(b1-4)GlcNAc(b1-2)][GlcNAc(b1-4)]Man(b1-4)GlcNAc(b1-4)GlcNAc
# Method in brief: as §1
# [21] = molecular target: Gal(b1-4)GlcNAc(b1-2)Man(a1-3)[GlcNAc(b1-2)Man(a1-6)]Man(b1-4)GlcNAc(b1-4)GlcNAc
# Method in brief: as §1
# [22] = molecular target: Gal(b1-4)GlcNAc(b1-2)Man(a1-3)[GlcNAc(b1-4)][Gal(b1-4)GlcNAc(b1-2)Man(a1-6)]Man(b1-4)GlcNAc(b1-4)GlcNAc
# Method in brief: as §1
# [23] = molecular target: Gal(b1-4)GlcNAc(b1-2)Man(a1-3)[Man(a1-6)]Man(b1-4)GlcNAc(b1-4)GlcNAc
# Method in brief: as §1
# [24] = molecular target: Gal(b1-4)GlcNAc(b1-2)Man(a1-6)Man(b1-4)GlcNAc(b1-4)GlcNAc
# Method in brief: as §1
# [25] = molecular target: Gal(b1-4)GlcNAc(b1-2)Man(a1-6)[GlcNAc(b1-2)Man(a1-3)]Man(b1-4)GlcNAc(b1-4)GlcNAc
# Method in brief: as §1
# [26] = molecular target: Gal(b1-4)GlcNAc(b1-2)Man(a1-6)[Man(a1-3)]Man(b1-4)GlcNAc(b1-4)GlcNAc
# Method in brief: as §1
# [27] = molecular target: Gal(b1-4)GlcNAc(b1-2)[Gal(b1-4)GlcNAc(b1-4)]Man(a1-3)[Gal(b1-4)GlcNAc(b1-2)Man(a1-6)]Man(b1-4)GlcNAc(b1-4)GlcNAc
# Method in brief: as §1
# [28] = molecular target: Gal(b1-4)GlcNAc(b1-2)[Gal(b1-4)GlcNAc(b1-4)]Man(a1-3)[Gal(b1-4)GlcNAc(b1-2)[Gal(b1-4)GlcNAc(b1-6)]Man(a1-6)]Man(b1-4)GlcNAc(b1-4)GlcNAc
# Method in brief: as §1
# [29] = molecular target: Gal(b1-4)GlcNAc(b1-2)[Gal(b1-4)GlcNAc(b1-4)]Man(a1-3)[GlcNAc(b1-4)][Gal(b1-4)GlcNAc(b1-2)Man(a1-6)]Man(b1-4)GlcNAc(b1-4)GlcNAc
# Method in brief: as §1
# [30] = molecular target: Gal(b1-4)GlcNAc(b1-2)[Gal(b1-4)GlcNAc(b1-4)]Man(a1-3)[GlcNAc(b1-4)][Gal(b1-4)GlcNAc(b1-2)[Gal(b1-4)GlcNAc(b1-6)]Man(a1-6)]Man(b1-4)GlcNAc(b1-4)GlcNAc
# Method in brief: as §1
# [31] = molecular target: Gal(b1-4)GlcNAc(b1-2)[Gal(b1-4)GlcNAc(b1-4)]Man(a1-3)[GlcNAc(b1-4)][Gal(b1-4)GlcNAc(b1-2)[Gal(b1-4)GlcNAc(b1-6)]Man(a1-6)]Man(b1-4)GlcNAc(b1-4)[Fuc(a1-6)]GlcNAc
# Method in brief: as §1
# [32] = molecular target: Gal(b1-4)GlcNAc(b1-2)[Gal(b1-4)GlcNAc(b1-6)]Man(a1-6)[Gal(b1-4)GlcNAc(b1-2)Man(a1-3)]Man(b1-4)GlcNAc(b1-4)GlcNAc
# Method in brief: as §1
binder,measurement,setting,value
B1,glycan array binding signal (z-score),[1],0.242
same,glycan array binding signal (z-score),[2],0.668
same,glycan array binding signal (z-score),[3],-0.542
same,glycan array binding signal (z-score),[4],-0.53
same,glycan array binding signal (z-score),[5],-0.172
same,glycan array binding signal (z-score),[6],1.02
same,glycan array binding signal (z-score),[7],-0.107
same,glycan array binding signal (z-score),[8],-0.323
same,glycan array binding signal (z-score),[9],-0.576
same,glycan array binding signal (z-score),[10],-0.705
same,glycan array binding signal (z-score),[11],-0.183
same,glycan array binding signal (z-score),Gal(b1-4)Gal,-0.15
same,glycan array binding signal (z-score),[12],-0.607
same,glycan array binding signal (z-score),[13],-0.728
same,glycan array binding signal (z-score),Gal(b1-4)Glc,-0.34
same,glycan array binding signal (z-score),Gal(b1-4)Glc6S,-0.122
same,glycan array binding signal (z-score),Gal(b1-4)GlcNAc,-0.082
same,glycan array binding signal (z-score),[14],-0.492
same,glycan array binding signal (z-score),Gal(b1-4)GlcNAc(b1-2)Man,-0.776
same,glycan array binding signal (z-score),[15],0.096
same,glycan array binding signal (z-score),[16],-0.071
same,glycan array binding signal (z-score),[17],1.77
same,glycan array binding signal (z-score),[18],-0.199
same,glycan array binding signal (z-score),[19],-0.519
same,glycan array binding signal (z-score),[20],-0.552
same,glycan array binding signal (z-score),[21],0.504
same,glycan array binding signal (z-score),[22],-0.797
same,glycan array binding signal (z-score),[23],0.245
same,glycan array binding signal (z-score),[24],-0.525
same,glycan array binding signal (z-score),[25],-0.122
same,glycan array binding signal (z-score),[26],0.108
same,glycan array binding signal (z-score),[27],-0.463
same,glycan array binding signal (z-score),[28],0.257
same,glycan array binding signal (z-score),[29],-0.265
same,glycan array binding signal (z-score),[30],0.115
same,glycan array binding signal (z-score),[31],2.29
same,glycan array binding signal (z-score),[32],0.085

# Given with bars between the fields: entries from further up.
binder | measurement | setting | value
B1 | glycan array binding signal (z-score) | [9] | -0.576
same | glycan array binding signal (z-score) | [10] | -0.705
